# Test: general procedure: Fmoc solid-phase peptide synthesis; Fmoc-Pal-Peg-PS resin (0.2 mmol/g); DIC/HOBt
# [1] = purification step, on 0.5 g crude
# [2] = whole synthesis, analytical reversed phase HPLC, UV 220 nm (plus ELSD for conjugates), scale of the general procedure 10 mmol
substance,measurement,setting,value
Ac-AGPTWCEDDWYYCWLFGTGGGK{Ac-VCWEDSWGGEVCFRYDPGGGK[-Adoa-Adoa-Glut-K(DSPE-PEG2000-NH-Glut)]-NH2 cyclic (2-12) disulfide}-NH2 cyclic (6-13) disulfide,final HPLC purity,"conjugation step, UV 220 nm and ELSD, acetate",>99% (area %)
same,conjugation yield,"conjugation step, acetate",33.0%
same,final purity (method not given),"purification step, LSD (ELSD)",99.3%
same,final HPLC purity,"purification step, UV 220 nm",99.6%
same,step yield,"purification step, recovery, run 1",about 70%
same,step yield,"purification step, recovery, run 2",83%
"Ac-RAQDWYYDEILSMADQLRHAFLSGGGGGK(DSPE-PEG2000-NH-Glut)-NH2 (SEQ ID NO. 1) (N-acetyl, C-amide, DSPE-PEG2000-NH-Glut lipid conjugate)",conjugation yield,conjugation step,47% yield
same,final HPLC purity,"conjugation step, UV 220 nm and ELSD",>98% purity
Ac-AGPTWCEDDWYYCWLFGTGGGK[K(ivDde)]-NH2 cyclic (6-13) disulfide,step yield,[1],20% yield
same,final HPLC purity,[2],>95% purity
same,crude mass,"whole synthesis, scale 10 mmol",30 g
same,crude yield,"whole synthesis, scale 10 mmol",103% of theory
Ac-AGPTWCEDDWYYCWLFGTGGGK[Ac-VCWEDSWGGEVCFRYDPGGGK(-Adoa-Adoa-Glut-K)-NH2 cyclic (2-12) disulfide]-NH2 cyclic (6-13) disulfide,final HPLC purity,"conjugation step, analytical reversed phase HPLC, UV 220 nm (plus ELSD for conjugates)",>95% purity
same,conjugation yield,"conjugation step, from monomer peptides",∼32% yield
same,conjugation yield,"conjugation step, overall",overall yield 33%
Ac-VCWEDSWGGEVCFRYDPGGGK(Adoa-Adoa)-NH2 cyclic (2-12) disulfide,step yield,[1],24% yield
same,final HPLC purity,[2],>95% purity
same,crude mass,"whole synthesis, scale 10 mmol",28 g

# Source: EP2359864B1 (Bracco Suisse SA, priority 2005, dated 2019)
